Measurements reported in PubChem BioAssay AID652243 (Drosophila RNAi Screening Center, 2013)
The screen tested about 24,000 reagents; this is a random part of those that have a named target and a result. Of all reagents, 246 (1%) got an active call. 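Plates not normalised; calls are printed but the firefly/Renilla ratio behind them is not deposited; fold cut for lowering reported inconsistently.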 Raw values vary from plate to plate and are shown uncorrected. No sequences are given here. Not given: the amount of reagent.

Test: 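Fly regulators of androgen-dependent reporter output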 (primary screen)
Cells: Drosophila S2R+ cells
Reagents: long dsRNA against Drosophila genes
Timing: 72 h (48 h, then 24 h hormone)
Treatment: synthetic androgen R1881 at 10 nM for 24 h
Measured: 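Per-well raw luminescence of the androgen-driven firefly reporter and of the Renilla control, two replicates each, without normalisation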
Scale: firefly reporter light: higher = more light from androgen-responsive reporter; Renilla control light: higher = more constitutive control signal (cell number, transfection)
Call rule: 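Hit when the log firefly-to-Renilla ratio dropped or increased by a fixed fold versus the mean of GFP or LacZ controls across duplicate plates; lowering cut given as 1.5 and as 3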
Meaning of the calls: active = hit: reporter lowered or raised; inactive = no hit

{"Target gene": "CG34409", "DRSC id": "DRSC14577", "firefly reporter light, replicate 1": 1.79e5, "firefly reporter light, replicate 2": 2.13e5, "Renilla control light, replicate 1": 2.81e6, "Renilla control light, replicate 2": 3.14e6, "call": "inactive"}
{"Target gene": "CG34409", "DRSC id": "DRSC21667", "firefly reporter light, replicate 1": 9.79e5, "firefly reporter light, replicate 2": 8.00e5, "Renilla control light, replicate 1": 2.92e6, "Renilla control light, replicate 2": 2.05e6, "call": "inactive"}
{"Target gene": "Smr", "DRSC id": "DRSC22986", "firefly reporter light, replicate 1": 7.55e5, "firefly reporter light, replicate 2": 7.69e5, "Renilla control light, replicate 1": 1.33e6, "Renilla control light, replicate 2": 1.11e6, "call": "inactive"}
{"Target gene": "Smr", "DRSC id": "DRSC25781", "firefly reporter light, replicate 1": 4.09e5, "firefly reporter light, replicate 2": 3.71e5, "Renilla control light, replicate 1": 9.55e5, "Renilla control light, replicate 2": 6.99e5, "call": "inactive"}
{"Target gene": "Cnx14D", "DRSC id": "DRSC20214", "firefly reporter light, replicate 1": 4.61e5, "firefly reporter light, replicate 2": 4.26e5, "Renilla control light, replicate 1": 4.16e6, "Renilla control light, replicate 2": 4.00e6, "call": "inactive"}
{"Target gene": "Cnx14D", "DRSC id": "DRSC25425", "firefly reporter light, replicate 1": 1.29e6, "firefly reporter light, replicate 2": 1.56e6, "Renilla control light, replicate 1": 1.01e6, "Renilla control light, replicate 2": 1.56e6, "call": "inactive"}
{"Target gene": "CG13998", "DRSC id": "DRSC02330", "firefly reporter light, replicate 1": 1.76e5, "firefly reporter light, replicate 2": 3.34e5, "Renilla control light, replicate 1": 9.93e5, "Renilla control light, replicate 2": 1.49e6, "call": "inactive"}
{"Target gene": "CG4558", "DRSC id": "DRSC18369", "firefly reporter light, replicate 1": 1.24e5, "firefly reporter light, replicate 2": 60703, "Renilla control light, replicate 1": 8.38e5, "Renilla control light, replicate 2": 4.41e5, "call": "inactive"}
{"Target gene": "CG33191", "DRSC id": "DRSC27362", "firefly reporter light, replicate 1": 2.65e5, "firefly reporter light, replicate 2": 2.62e5, "Renilla control light, replicate 1": 5.44e5, "Renilla control light, replicate 2": 7.79e5, "call": "inactive"}
{"Target gene": "Cep290", "DRSC id": "DRSC08359", "firefly reporter light, replicate 1": 59304, "firefly reporter light, replicate 2": 1.24e5, "Renilla control light, replicate 1": 1.03e6, "Renilla control light, replicate 2": 1.19e6, "call": "inactive"}
{"Target gene": "Cep290", "DRSC id": "DRSC29987", "firefly reporter light, replicate 1": 6.07e5, "firefly reporter light, replicate 2": 4.64e5, "Renilla control light, replicate 1": 1.20e6, "Renilla control light, replicate 2": 1.41e6, "call": "inactive"}
{"Target gene": "eas", "DRSC id": "DRSC20329", "firefly reporter light, replicate 1": 6.35e5, "firefly reporter light, replicate 2": 4.60e5, "Renilla control light, replicate 1": 3.89e6, "Renilla control light, replicate 2": 3.19e6, "call": "inactive"}
{"Target gene": "eas", "DRSC id": "DRSC29435", "firefly reporter light, replicate 1": 6.27e5, "firefly reporter light, replicate 2": 7.43e5, "Renilla control light, replicate 1": 1.02e6, "Renilla control light, replicate 2": 1.02e6, "call": "inactive"}
{"Target gene": "eas", "DRSC id": "DRSC36996", "call": "inactive"}
{"Target gene": "CCDC53", "DRSC id": "DRSC03056", "firefly reporter light, replicate 1": 1.58e5, "firefly reporter light, replicate 2": 1.66e5, "Renilla control light, replicate 1": 1.30e6, "Renilla control light, replicate 2": 1.28e6, "call": "inactive"}
{"Target gene": "sca", "DRSC id": "DRSC07677", "firefly reporter light, replicate 1": 1.56e5, "firefly reporter light, replicate 2": 1.37e5, "Renilla control light, replicate 1": 1.04e6, "Renilla control light, replicate 2": 9.73e5, "call": "inactive"}
{"Target gene": "sca", "DRSC id": "DRSC29515", "firefly reporter light, replicate 1": 2.67e5, "firefly reporter light, replicate 2": 4.31e5, "Renilla control light, replicate 1": 6.29e5, "Renilla control light, replicate 2": 6.29e5, "call": "inactive"}
{"Target gene": "pain", "DRSC id": "DRSC04273", "firefly reporter light, replicate 1": 1.73e5, "firefly reporter light, replicate 2": 1.36e5, "Renilla control light, replicate 1": 1.27e6, "Renilla control light, replicate 2": 9.00e5, "call": "inactive"}
{"Target gene": "pain", "DRSC id": "DRSC28351", "firefly reporter light, replicate 1": 5.18e5, "firefly reporter light, replicate 2": 7.44e5, "Renilla control light, replicate 1": 8.84e5, "Renilla control light, replicate 2": 1.49e6, "call": "inactive"}
{"Target gene": "CG15279", "DRSC id": "DRSC01935", "firefly reporter light, replicate 1": 9.14e5, "firefly reporter light, replicate 2": 1.15e6, "Renilla control light, replicate 1": 1.47e6, "Renilla control light, replicate 2": 1.36e6, "call": "inactive"}
{"Target gene": "CG15279", "DRSC id": "DRSC27347", "firefly reporter light, replicate 1": 1.78e5, "firefly reporter light, replicate 2": 3.09e5, "Renilla control light, replicate 1": 7.65e5, "Renilla control light, replicate 2": 9.80e5, "call": "inactive"}
